# Results published in US20090156471A1, “Use of anti-amyloid agents for treating and typing pathogen infections” (RAMOT AT TEL AVIV UNIVERSITY LTD., priority 2005, published 2009).
# Sequences of proteins named here, by UniProt entry; tags and fusion partners are left off. Residues count along the entry.
# UniProt P07589, residues 33-2478: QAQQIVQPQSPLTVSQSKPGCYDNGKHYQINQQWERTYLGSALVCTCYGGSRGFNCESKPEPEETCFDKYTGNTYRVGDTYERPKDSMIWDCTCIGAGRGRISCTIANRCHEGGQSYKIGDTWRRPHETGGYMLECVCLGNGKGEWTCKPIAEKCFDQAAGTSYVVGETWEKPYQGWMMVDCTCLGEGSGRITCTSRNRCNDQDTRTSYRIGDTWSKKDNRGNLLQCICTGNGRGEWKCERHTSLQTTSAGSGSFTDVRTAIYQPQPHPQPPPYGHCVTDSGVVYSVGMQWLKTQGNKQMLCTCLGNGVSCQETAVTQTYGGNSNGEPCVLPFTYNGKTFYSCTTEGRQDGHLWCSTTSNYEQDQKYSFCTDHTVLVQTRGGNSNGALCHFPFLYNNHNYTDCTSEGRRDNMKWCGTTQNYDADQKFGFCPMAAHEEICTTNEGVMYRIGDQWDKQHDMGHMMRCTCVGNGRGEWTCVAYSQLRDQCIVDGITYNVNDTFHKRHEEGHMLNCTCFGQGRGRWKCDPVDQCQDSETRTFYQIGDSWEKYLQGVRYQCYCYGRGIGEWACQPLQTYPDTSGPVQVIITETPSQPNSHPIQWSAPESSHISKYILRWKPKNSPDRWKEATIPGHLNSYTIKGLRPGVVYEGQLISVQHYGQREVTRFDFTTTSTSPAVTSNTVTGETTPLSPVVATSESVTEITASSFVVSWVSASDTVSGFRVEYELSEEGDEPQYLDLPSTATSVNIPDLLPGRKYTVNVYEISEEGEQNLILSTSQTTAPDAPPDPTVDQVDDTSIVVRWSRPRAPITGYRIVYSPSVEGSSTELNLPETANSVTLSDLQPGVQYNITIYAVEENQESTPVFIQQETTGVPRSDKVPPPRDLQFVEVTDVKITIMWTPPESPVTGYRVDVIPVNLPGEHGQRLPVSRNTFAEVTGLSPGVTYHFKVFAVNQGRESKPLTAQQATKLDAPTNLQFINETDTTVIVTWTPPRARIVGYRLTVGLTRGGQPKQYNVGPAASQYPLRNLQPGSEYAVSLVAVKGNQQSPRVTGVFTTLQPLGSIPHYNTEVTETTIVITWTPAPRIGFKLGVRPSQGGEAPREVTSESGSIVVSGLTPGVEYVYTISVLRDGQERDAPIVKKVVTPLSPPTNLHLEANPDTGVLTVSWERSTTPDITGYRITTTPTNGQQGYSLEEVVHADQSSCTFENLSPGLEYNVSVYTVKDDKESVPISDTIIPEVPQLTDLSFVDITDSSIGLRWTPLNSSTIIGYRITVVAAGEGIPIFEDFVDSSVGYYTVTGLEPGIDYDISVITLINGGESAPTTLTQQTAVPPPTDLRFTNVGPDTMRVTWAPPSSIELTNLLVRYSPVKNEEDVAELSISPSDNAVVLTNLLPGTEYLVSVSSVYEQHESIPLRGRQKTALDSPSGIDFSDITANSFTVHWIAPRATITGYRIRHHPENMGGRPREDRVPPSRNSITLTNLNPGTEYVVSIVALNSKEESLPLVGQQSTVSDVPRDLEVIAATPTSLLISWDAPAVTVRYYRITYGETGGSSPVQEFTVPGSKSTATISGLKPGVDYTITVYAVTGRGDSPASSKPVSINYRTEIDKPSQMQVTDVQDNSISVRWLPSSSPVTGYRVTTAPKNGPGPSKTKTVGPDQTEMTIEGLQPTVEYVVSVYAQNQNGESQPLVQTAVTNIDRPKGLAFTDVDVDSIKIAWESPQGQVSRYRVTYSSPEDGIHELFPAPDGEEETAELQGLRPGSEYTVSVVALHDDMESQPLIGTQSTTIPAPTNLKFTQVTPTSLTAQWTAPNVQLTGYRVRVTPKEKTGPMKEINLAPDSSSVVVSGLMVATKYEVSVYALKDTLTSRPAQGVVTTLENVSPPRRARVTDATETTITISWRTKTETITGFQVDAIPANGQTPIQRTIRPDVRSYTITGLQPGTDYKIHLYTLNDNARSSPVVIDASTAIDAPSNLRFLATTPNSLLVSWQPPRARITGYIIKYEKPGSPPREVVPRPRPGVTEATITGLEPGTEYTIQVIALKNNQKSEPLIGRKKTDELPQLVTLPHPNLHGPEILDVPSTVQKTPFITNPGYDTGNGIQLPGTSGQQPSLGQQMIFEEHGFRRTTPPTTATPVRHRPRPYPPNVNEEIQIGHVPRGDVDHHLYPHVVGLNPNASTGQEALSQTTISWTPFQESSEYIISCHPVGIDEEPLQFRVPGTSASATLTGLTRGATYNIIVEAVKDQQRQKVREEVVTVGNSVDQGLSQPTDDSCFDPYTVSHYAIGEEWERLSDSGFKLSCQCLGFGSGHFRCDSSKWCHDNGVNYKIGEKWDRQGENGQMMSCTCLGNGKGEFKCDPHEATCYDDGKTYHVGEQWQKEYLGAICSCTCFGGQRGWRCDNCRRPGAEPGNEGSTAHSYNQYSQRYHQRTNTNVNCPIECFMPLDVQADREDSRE
# UniProt P28307, residues 21-151: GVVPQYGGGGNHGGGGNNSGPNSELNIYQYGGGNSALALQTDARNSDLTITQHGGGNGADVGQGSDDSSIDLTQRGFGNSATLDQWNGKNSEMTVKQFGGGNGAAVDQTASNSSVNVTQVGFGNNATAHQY
# Results are given in words; binding and its absence hold for the method and conditions named. Some binding calls cover weakened binding; strength is not graded here.
# Target: bovine fibronectin (Sigma) (bovine) (UniProt P07589)
# Assay: adhesion of curli-expressing E. coli XL1-Blue(pMRInv) to wells coated with bovine fibronectin, A405
substance,measurement,value
curli (major curlin subunit CsgA) on E. coli K-12 XL1-Blue(pMRInv) (from UniProt P28307 21-151),binding,binds
